Source: the supplement of paper PMC12823440, “Inhibitors supercharge kinase turnover through native proteolytic circuits” (Nature, 2025)
Where a name gives a salt, the structure may show the parent alone. This is one part of the list. Hit calls seldom repeat between salt and free forms of one compound.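 Kinases were expressed as nanoluciferase fusions in K562 cells and luminescence was read every 4 h between 2 and 18 h as percent of control, DMSO set to 100% and a positive control to 0%. A time point counts as decreased when the signal drops significantly (2 sigma). The hit call is the authors' own, does not follow from the count of time points alone, and its rule is not shown.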

The chains behind the UniProt entries cited, without tags or fusion partners. Where a name states a change or a piece, a line headed by the entry shows the natural chain unless it says otherwise.
UniProt Q13131: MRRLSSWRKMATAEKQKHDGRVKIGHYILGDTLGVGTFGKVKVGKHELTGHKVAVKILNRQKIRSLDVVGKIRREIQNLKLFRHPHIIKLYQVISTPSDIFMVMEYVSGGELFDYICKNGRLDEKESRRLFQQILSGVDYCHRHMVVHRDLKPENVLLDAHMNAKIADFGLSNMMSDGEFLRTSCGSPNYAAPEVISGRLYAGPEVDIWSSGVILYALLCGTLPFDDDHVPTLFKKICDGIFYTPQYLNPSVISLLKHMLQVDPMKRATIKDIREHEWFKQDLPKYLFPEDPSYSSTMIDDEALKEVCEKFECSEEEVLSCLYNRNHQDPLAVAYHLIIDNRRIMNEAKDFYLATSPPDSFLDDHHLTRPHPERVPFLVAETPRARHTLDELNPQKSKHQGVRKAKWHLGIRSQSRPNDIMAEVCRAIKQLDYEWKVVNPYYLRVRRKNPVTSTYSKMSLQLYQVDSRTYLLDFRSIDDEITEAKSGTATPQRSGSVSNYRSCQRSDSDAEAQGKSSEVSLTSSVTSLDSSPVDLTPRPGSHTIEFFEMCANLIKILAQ

These compounds were tested against PRKAA1 (UniProt Q13131) (assay: kinase-Nluc reporter destabilization hit call (1 = scored as downregulated) (binary); higher = compound decreases kinase abundance). Conditions: K562; 2-18 h.

kinase-Nluc reporter destabilization hit call, inactive:
O=C(O)/C=C(\CCc1ccc(Cl)cc1)c1ccccc1 (10 µM) 0, CCOC(=O)c1c(C)[nH]c(C=C2C(=O)Nc3ccccc32)c1C (10 µM) 0, O=C(NC[C@H](O)CO)c1ccncc1Nc1ccc(I)cc1F [Pimasertib] (10 µM) 0, O=[N+]([O-])c1ccc(-c2nc(-c3ccc(F)cc3)c(-c3ccncc3)[nH]2)cc1 (10 µM) 0, COc1ccc(CCNCc2ccc(OCc3ccc(Cl)nc3)c(OC)c2)cc1OC [SBE13 (Hydrochloride)] (10 µM) 0

Each compound was assayed against PRKCA (UniProt P17252) in the same assay as above. Conditions: K562; 2-18 h.

kinase-Nluc reporter destabilization hit call, inactive:
COc1ccc2nc3ccc(OC)cc3c(SCCCN)c2c1 (10 µM) 0, NC(=O)c1sc2c([N+](=O)[O-])cc(C(F)(F)F)cc2[n+]1[O-] [Cyclapolin 9] (10 µM) 0, CS(=O)(=O)c1cccc(CNc2nc(Nc3ccc4c(c3)CCC(=O)N4)ncc2C(F)(F)F)c1 (10 µM) 0, CS(=O)(=O)c1ccc([C@@H](CC2CCCC2)C(=O)Nc2nccs2)cc1 (10 µM) 0, C=CC(=O)Nc1cc(Nc2nccc(-c3cn(C)c4ccccc34)n2)c(OCC(F)(F)F)nc1N(C)CCNC [AST5902  (trimesylate)] (2.5 µM) 0, CO/N=C1/C(c2c(O)[nH]c3cc(Cl)c(Cl)cc23)=Nc2ccccc21 (10 µM) 0, CC(ONC(=O)c1cc(C(F)(F)F)cc(C(F)(F)F)c1)C(=O)Nc1ccc(Cl)cc1 (configuration not stated) (2.5 µM) 0
